Results on 7 molecules are retold here after patent US20210275683A1.

Protein sequences, listed by entry. Tags and fused reporters are not part of them. Residues count along the entry.
UniProt Q96NY8, residues 32-510: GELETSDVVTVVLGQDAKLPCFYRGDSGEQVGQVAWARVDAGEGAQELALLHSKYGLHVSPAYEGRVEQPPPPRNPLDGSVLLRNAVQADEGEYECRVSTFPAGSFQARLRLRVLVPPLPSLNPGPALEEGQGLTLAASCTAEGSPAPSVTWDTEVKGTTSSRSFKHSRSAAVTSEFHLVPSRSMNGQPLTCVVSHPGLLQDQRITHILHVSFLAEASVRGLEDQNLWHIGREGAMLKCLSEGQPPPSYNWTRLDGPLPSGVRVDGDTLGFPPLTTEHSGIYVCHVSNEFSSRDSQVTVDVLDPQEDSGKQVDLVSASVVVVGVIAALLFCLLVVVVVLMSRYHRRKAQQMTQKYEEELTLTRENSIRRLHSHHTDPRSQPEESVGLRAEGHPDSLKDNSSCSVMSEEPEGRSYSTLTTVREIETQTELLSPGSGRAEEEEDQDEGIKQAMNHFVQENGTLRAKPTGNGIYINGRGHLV

Changes are numbered by the printed parent chain. Names and notes keep the numbering of the source. These are yes or no findings as the source states them, for the method shown. Some binding calls cover weakened binding; strength is not graded here.

B1: hzD6.2C-mIgG2a (anti-Nectin-4 antibody with the binding domain of hzD6.2C on mouse IgG2a) (antibody, V domains shown)
VH: EVQLVESGGGLVQPGGSLRLSCAASGFTFSNYDMSWVRQAPGKGLEWVATISSGGSYTYYVDSVKGRFTISRDNAKNSLYLQMNSLRAEDTAVYYCARQELGSYYAMDYWGQGTTVTVSS
VL: DIVMTQTPLSLPVTPGEPASISCRSSQSIVHSNANTYLEWYLQKPGQSPQLLIYKVSNRFSGVPDRFSGSGSGTDFTLKISRVEAEDVGVYYCFQGSHVPYTFGGGTKVEIK
B2: humanized D6C mAb with hzD6.2C VL (G34A), human IgG1 / human kappa (antibody, V domains shown)
VH: B1 VH
VL: DIVMTQTPLSLPVTPGEPASISCRSSQSIVHSNANTYLEWYLQKPGQSPQLLIYKVSNRFSGVPDRFSGSGSGTDFTLKISRVEAEDVGVYYCFQGSHVPYTFGGGTKVEIKR
B3: humanized D6C mAb with hzD6.1C VL (I2V), human IgG1 / human kappa (antibody, V domains shown)
VH: B1 VH
VL: B2 VL with I2V, A34G
B4: hzD6.1C-Compound 2.14 (anti-Nectin-4-TLR8 agonist immunoconjugate) (antibody, V domains shown)
VH: B1 VH
VL: B2 VL with I2V, A34G
B5: D6C parental chimeric anti-Nectin-4 antibody (D6C IgG1) (antibody, V domains shown)
VH: EVMLVESGGALVKPGGSLKLSCVASGFTFSNYDMSWVRQTPEKRLEWVATISSGGSYTYYVDSVKGRFTISRDNARNTLHLQMSSLRSKDTAMYYCARQELGSYYAMDYWGQGTSVTVSS
VL: B1 VL with I2V, T14S, P15L, E17D, P18Q, A34G, Q50K, V88L, V109L
B6: hzD6.2C-Compound 2.14 (anti-Nectin-4-TLR8 agonist immunoconjugate) (antibody, V domains shown)
VH: B1 VH
VL: B2 VL
B7: D6C IgG1-Compound 2.14 (parental antibody TLR8 agonist conjugate) (antibody, V domains shown)
VH: B5 VH
VL: B1 VL with I2V, T14S, P15L, E17D, P18Q, A34G, Q50K, V88L, V109L

The first assay has as its target Nectin-4 on T24 tumor cells (stable clone made by Nectin4-lentiviral transduction) (UniProt Q96NY8). Put plainly: flow cytometry blocking assay on Nectin-4 expressing T24 cells; blocked ligand rhTIGIT-Fc at 40 nM, detected with PE anti-human Fc. A general note: Flow cytometry measures light scatter and fluorescence of single cells or particles in a stream.
Take B1: the binding entry was “binds”.

In the next assay the target is cynomolgus Nectin-4 on transfected HEK-293 cells (cynomolgus). Put plainly: flow cytometry on HEK-293 cells transfected with cynomolgus Nectin-4, anti-huIgG1-PE.
For the molecule B2, the binding result is “binds”.

Take B3: the binding result is “binds”.

Turning to B4, the binding entry is on record as “binds”.

In the case of B5, the binding entry was “binds”.

Regarding B6, the binding entry is “binds”.

B7: the binding entry is “binds”.

The target is the same in another assay. Nature of the assay: flow cytometry on transfected HEK-293 cells (FIG. 1B).
In the case of B2, the binding result was “binds”.

On to B3, for which the binding result is recorded as “binds”.

On to B4, for which the binding entry was “binds”.

For B5, the binding result is “binds”.

With B6, the binding entry is “binds”.

In the case of B7, the binding result is “binds”.
